# The other results are listed elsewhere or left out. These are raw signals, not scaled to a control.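 Primary screen: polymyxin B was added at a level permeabilizing Salmonella outer membranes while sparing inner membranes. DMSO wells, both with and without polymyxin B, established maximum growth. Plate-to-plate variation meant each plate was ranked on its own, and the lowest-OD600 compounds were selected as hits.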
# Tested on: Salmonella enterica serovar Typhimurium SL1344
# Assay: bacterial growth OD600 after 18 h with compound and polymyxin B; higher = more bacterial growth (less inhibition)
# Conditions: 50 µM, Mueller-Hinton broth
SMILES,bacterial growth OD600 (polymyxin B 0.75 µg/mL),bacterial growth OD600 (polymyxin B 1 µg/mL)
CCOc1cccc(CN2CCC3(CC2)c2ccccc2[C@@H](NC(=O)Cc2cccs2)[C@@H]3OC)c1,0.797,–
CCN(Cc1ccccc1)C(=O)CC1(c2cccc(C(F)(F)F)c2)CC(=O)N(C2CC2)C1=O (stereo not given),0.001,–
CCN(CC1CCCO1)C(=O)CC1(c2cccc(C(F)(F)F)c2)CC(=O)N(C2CC2)C1=O (stereo not given),0.875,–
Cc1cccc(C)c1OCc1cc(C(=O)NCc2cccnc2)no1,0.787,–
O=C(NCCc1cccc(F)c1)C1CCC(=O)N(CCCc2ccccc2)C1 (stereo not given),–,0.825
COc1ccccc1CCNC(=O)Cc1ccc(N2CCC(NCc3cccc(F)c3)CC2)cc1,0.796,–
CN(C)S(=O)(=O)N1CCC(C2CCN(CCc3ccccc3)C2)CC1 (stereo not given),0.991,–
CN(C(=O)CC1C(=O)NCCN1Cc1ccccc1)C1CC(C)(C)NC(C)(C)C1 (stereo not given),–,1.04
COc1ccccc1-c1ccnc(-n2ncc(C(=O)N3CCN(c4ccccc4OC)CC3)c2C)n1,0.603,–
O=C(c1ccc2[nH]ccc2c1)N1CCCC(c2nc(-c3cccnc3)ncc2-c2ccccc2F)C1 (stereo not given),0.036,–
COCC1CCCCN1C(=O)c1coc(COc2ccc(F)cc2Cl)n1 (stereo not given),–,0.891
Cc1ccccc1C(CC(=O)N(C)Cc1ccncn1)c1ccccc1 (stereo not given),0.705,–
COCc1ccc(CN2CCC(n3nccc3NC(=O)C3CCCC3)CC2)o1,–,0.968
CC(C)c1cc(CNC(=O)C2CCC(=O)N(CCCN3CCOCC3)C2)on1 (stereo not given),–,0.985
C=CCC(=O)NC1CCCc2c1cnn2-c1cccc(C)c1C (stereo not given),–,0.803
CCOC(=O)C1(Cc2ccccc2C(F)(F)F)CCN(C2CCSCC2)CC1,–,0.927
Cc1ccn2cc(C(=O)N(C)C3CCCN(CCCc4ccccc4)C3)nc2c1 (stereo not given),0.741,–
CCOC(=O)C1(Cc2cccc(F)c2)CCN(Cc2c(C)nn(CC)c2C)CC1,–,0.841
CN(Cc1ccc2nsnc2c1)C(=O)c1cn(CCc2ccccc2)nn1,–,1.09
CCC(NC(=O)c1csc2nc(-c3ccc(F)cc3)cn12)c1ccncc1 (stereo not given),–,1.02
COc1ccc(OC)c(CN2CCN(Cc3ccc(F)c(F)c3)C(CCO)C2)c1 (stereo not given),–,0.832
COc1ccc(CN2CCCCCCC2)cc1OCC(O)CN1CCN(C)CC1 (stereo not given),0.879,–
COc1cccc(Cc2cc(C(=O)NCCC(c3ccccc3)c3ccco3)on2)c1 (stereo not given),0.844,–
CCOC(=O)C1(CCOc2ccccc2)CCCN(Cc2cccc(O)c2)C1 (stereo not given),0.763,–
CN1N=C(C(=O)N(C)C2CCCN(Cc3ccccc3F)C2)CCC1=O (stereo not given),–,0.908
CCn1ccnc1CN1CCC(n2nccc2NC(=O)C(OC)c2ccccc2)CC1 (stereo not given),–,0.939
CC(C)c1ccc(CN2CCCC3(CCN(c4ncccn4)C3)C2=O)cc1 (stereo not given),–,0.703
CC(C)CC(=O)C(=O)N1CCC(C2(c3ccccn3)NC(=O)N(CCc3cccs3)C2=O)CC1 (stereo not given),0.819,–
CO[C@H]1[C@H](NC(=O)C(C)C)c2ccccc2C12CCN(C(=O)C[C@@H]1C[C@@H](C)NC(=S)N1)CC2,0.834,–
COC(C(=O)N1CCC(C(Cc2ccccc2)N(C)C(=O)c2ccccn2)CC1)c1ccccc1 (stereo not given),0.859,–

# Full records, looked up by structure:
# `O=C(c1ccc2[nH]ccc2c1)N1CCCC(c2nc(-c3cccnc3)ncc2-c2ccccc2F)C1` (stereo not given) reads bacterial growth OD600 (polymyxin B 0.75 µg/mL): 0.036
# `COc1ccc(CN2CCCCCCC2)cc1OCC(O)CN1CCN(C)CC1` (stereo not given) reads bacterial growth OD600 (polymyxin B 0.75 µg/mL): 0.879

# Reference: the supplement of paper PMC12889115
